From publication PMC10163288
The list shows a part of the results.

B1: il2ra_site2_3nfp_sap_20_mot_HHH_b1_00487_000000023_0001_40_53_H_._c404ac47ecb0312e2f7dfd42d7b7c6cf_0001_af2_0001_0000300012_0000001_0_0001_af2pred_0001_af2pred (protein)
chain: SSSSSDEEHQKFIVRAELYAAKVQPDPRLREEALELARRSAEAHNDEELKELVEEVAEELSSSSS
B2: il2ra_site1_2b5i_normal_mot_HHH_b2_00256_000000050_0001_19_35_H_._HHH_b2_00953_af2_0001_0000200020_0000001_0_af2pred_dldesign_0_af2pred (protein)
chain: SSSSSDLERFAAELLYKAKATLKLTPEQFKELEKLVIALLEQGKSEEELKKELEEFAAKVSSSSS
B3: il2ra_site1_1z92_normal_mot_HHH_b2_00385_000000257_0001_1_19_H_._HHH_b1_07316_0001_0000400043_0000001_0 (protein)
chain: SSSSSWQEEILRSLIRSLERLAEEGNEKALEKLLEFLEIAAKENNDEEAERFVEKLKEELSSSSS
B4: il2ra_site2_2erj_normal_mot_HHH_b1_07806_000000211_0001_42_56_H_._HHH_b1_01569_0001_0000200016_0000001_0 (protein)
chain: SSSSDWLERLYELAELIDRLRANGNPEEAREVLEELEELAEETDSENAKEVAEFLEKQLNSSSSS
B5: il2ra_site1_3nfp_sap_15_mot_HHH_b1_07180_af2_000000260_0001_1_19_H_._HHH_b2_06750_af2_0001_0004600089_0000001_0_0001_af2pred_0001_af2pred_1_swapped (protein)
chain: SSSSSSSAEELLRRAQEAARNGNPEEAREVLEEALELAEENGNKALRKFVESLLRVLESSSSSSS
B6: il2ra_site1_2b5i_normal_mot_ems_3hM_3687_af2_000000248_0001_45_64_H_._HHH_b2_05772_af2_0001_0000200011_0000001_0_af2pred_dldesign_0_af2pred (protein)
chain: SSSSSPELEALAKKAIEEADKAKEAGDRRKALEILEEAHKKLAAADDEELADLMHEKALELSSSS
B7: il2ra_site2_3nfp_normal_mot_HHH_b2_04451_000000238_0001_21_37_H_._HHH_b2_06904_0001_0000300014_0000001_0 (protein)
chain: SSSSSSDEEEIEELLELVEKIDDQLERLQVLLEASKLAAELGDEELAREVLRLFAEIQSSSSSSS
B8: il2ra_site1_1z92_normal_mot_HHH_b2_04090_000000052_0001_1_16_H_._HHH_b2_00407_0001_0000200011_0000001_0_af2pred_0001_af2pred (protein)
chain: SSSSSALELQLEFLLEQIERAIKLGNPRSARRALEMARELAELQNDEEVEEKLEELERLVNSSSS
B9: il2ra_site2_3nfp_sap_24_mot_HHH_b2_03377_000000137_0001_25_41_H_._HHH_b2_02614_0001_0000100004_0000001_0_0001 (protein)
chain: SSSSDVSEEYLKAALALLELAVEEGDKEQFERILETVRAAAEANNDEEVRERLEELEELIKSSSS
B10: il2ra_site2_3nfp_sap_18_mot_HHH_b1_03873_000000295_0001_37_55_H_._3e7f9dc7757c9be4a21a7eaad61dbf0f_0001_1_0001_0000300022_0000001_0_0001 (protein)
chain: NEHLVEEAIELAEELGDPEVAEVLEKLLEEARRTNDPKLRTAVAALAALVRWDPEYAKEAAALYK

Target: il2ra, P01589
Test: yeast display titration

Apparent Kd, inactive:
B1 no binding seen
B2 no binding seen
B3 > 6.35 µM
B4 no binding seen
B5 no binding seen
B6 no binding seen
B7 no binding seen
B8 no binding seen
B9 no binding seen
B10 no binding seen

For reference, some entries already given:
Apparent Kd, inactive:
B9 no binding seen
B10 no binding seen
